Data as given in US5116816A (Sandoz Ltd., priority 1987, dated 1992).
Strings that start with PEPTIDE1 are HELM notation: dots part the residues, brackets hold end groups and non-standard residues.

Assay: general procedure: solution-phase peptide synthesis; N-ethyl-N-(3-dimethylamino)propyl carbodiimide / 4-dimethylaminopyridine
Settings: cyclisation step, on linear precursor

**Q.** With “PEPTIDE1{[MeBmt].T.[Sar].[MeLeu].L.[MeLeu].A.[D-Hiv].[MeLeu].L.[MeVal]}$PEPTIDE1,PEPTIDE1,1:R1-11:R2$$$V2.0” as the substance, how does the cyclisation yield read?
**A.** 89%
